In PMC7819943, “Rice protein-binding microarrays: a tool to detect cis-acting elements near promoter regions in rice”:
The list shows a part of the results.

Chains of the proteins cited; added tags and fusions are not shown.
UniProt Q0JBA9, entry or part of it: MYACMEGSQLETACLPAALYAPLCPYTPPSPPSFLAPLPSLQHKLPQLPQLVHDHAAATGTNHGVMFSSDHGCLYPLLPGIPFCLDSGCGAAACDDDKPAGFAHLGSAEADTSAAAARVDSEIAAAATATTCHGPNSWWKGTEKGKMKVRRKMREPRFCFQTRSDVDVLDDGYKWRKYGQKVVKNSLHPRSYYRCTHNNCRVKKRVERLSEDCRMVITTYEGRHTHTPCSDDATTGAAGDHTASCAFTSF

Biological target: OsWRKY34 (Oryza sativa, UniProt Q0JBA9 1-250)
Assay: protein-binding microarray (RPBM); PBS, 2% BSA, 51.3 ng/ul salmon testes DNA, 50 uM zinc acetate, 200 nM TF, 25 C, 1 h; high values mean tight binding
Settings: protein: recombinant; tags: N-terminal polyhistidine and DsRed monomer fusion (pET32a); label: CyDye5-dUTP incorporated in the synthesized complementary strand; 3' TTTTT single-stranded linker to array surface; dsDNA, one strand shown
Procedure, shortened: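 Binding signal is reported as fluorescence intensity per feature (arbitrary units) from an Axon 4000B scanner. Incubation used 200 nM of each Ni–NTA-purified, N-terminally polyhistidine- and DsRed-fused transcription factor from E. coli BL21-CodonPlus on a double-stranded custom Agilent array for 1 h at 25 °C, with 50 µM zinc acetate in the buffer, followed by washing.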

Sequence | binding signal
CCACTACTGCCCTTGCTTGACTCGTTTGGTTGGTTGCCTACGGAGTCACCTAGTGCAG | 10200 fluorescence intensity (a.u.)
GGTTTTGGAGGACGGTTTCTCTAAGATGGCGGTGTTGACCCGGAGTCACCTAGTGCAG | 9560 fluorescence intensity (a.u.)
GCTCACGTTGACCTGCCTTAGGCCACCGTTCTCACCGGCTCGGAGTCACCTAGTGCAG | 8030 fluorescence intensity (a.u.)
GGTGACCTCGTGGCAAGCAAACTTAACTACCACATGAGAGCGGAGTCACCTAGTGCAG | 8550 fluorescence intensity (a.u.)
TATACAATACAGCTCTGTCCCAACTTCCGATACATACATACGGAGTCACCTAGTGCAG | 9770 fluorescence intensity (a.u.)
CCCGGGTCGGGGTCGGGGTCCGGGGTCGGGGTCCCCAACTCGGAGTCACCTAGTGCAG | 13000 fluorescence intensity (a.u.)
CATCATGTCTGTCCATGTTCTCTGTACTAGAATGTGTCATCGGAGTCACCTAGTGCAG | 10300 fluorescence intensity (a.u.)
GTGCACACATATGCAAAAATGCCATCCATTCATCCCAGTGCGGAGTCACCTAGTGCAG | 8870 fluorescence intensity (a.u.)
GCTTCTCTTCATTCATTCTTTGACTTCTTCTCCTAATTTACGGAGTCACCTAGTGCAG | 11800 fluorescence intensity (a.u.)
GTAGATGATGGTCATGTGTTATTTTTGTTGTTGTATTGTACGGAGTCACCTAGTGCAG | 11900 fluorescence intensity (a.u.)
ACCTGTCATCCACATCACCGCAATTCATTCTGACACCTGGCGGAGTCACCTAGTGCAG | 10300 fluorescence intensity (a.u.)
TATTTTTCCTATGTTTTACAATCCTCTGTTTTACACTCGTCGGAGTCACCTAGTGCAG | 8860 fluorescence intensity (a.u.)
CGCTGTATTTTTCCTCCTCCCTTCATCGGTCTTCATATTACGGAGTCACCTAGTGCAG | 8810 fluorescence intensity (a.u.)
GTGTCCAACTTTAACTGTCCGTCTTATATGAAATTTTTTTCGGAGTCACCTAGTGCAG | 10200 fluorescence intensity (a.u.)
CCATTGTTTTCTTCTTGTCCTTTTAGAGATGTTGGGTACACGGAGTCACCTAGTGCAG | 8240 fluorescence intensity (a.u.)
CGCGAACGACGTACACCATCCGATCGATCCATCAAACCAGCGGAGTCACCTAGTGCAG | 8190 fluorescence intensity (a.u.)
TACATATATACTCCCTCCGTGTACTTCTCTAAAACCCAACCGGAGTCACCTAGTGCAG | 8630 fluorescence intensity (a.u.)
GTTTCACACTCATTCACCTCGTTTGATTGCACATTATGTCCGGAGTCACCTAGTGCAG | 8300 fluorescence intensity (a.u.)
CACTCGCACCCATCTCATCACCGAGTCACCGGCACCGGTCCGGAGTCACCTAGTGCAG | 11800 fluorescence intensity (a.u.)
GAGACTACCTTGTGCACTGCATTTCGAGTTTTTACCTGACCGGAGTCACCTAGTGCAG | 10500 fluorescence intensity (a.u.)
CCCTAGAACCCACTCTGCCCGCGCCCGGAGAAACCCTAGCCGGAGTCACCTAGTGCAG | 8070 fluorescence intensity (a.u.)

Sequence | binding signal
AATTTATCCATACCATTTTTCTTGTTTTAAAATTCGAATACGGAGTCACCTAGTGCAG | 9750 fluorescence intensity (a.u.)
ACTAACTTAGCTAGCGTGACAACTGGCACGCTCATTTTCTCGGAGTCACCTAGTGCAG | 9180 fluorescence intensity (a.u.)
TGGGAGTACTACACTGCACTGCATCGCGCAACCAACCAACCGGAGTCACCTAGTGCAG | 8540 fluorescence intensity (a.u.)
GTTTATTTTTCAGCCTTTACTTTTAGATTGCTAAGAACACCGGAGTCACCTAGTGCAG | 9770 fluorescence intensity (a.u.)
ACCACTGCACGGCCGCTCACCCACGTCAACGTTTAACCTGCGGAGTCACCTAGTGCAG | 9460 fluorescence intensity (a.u.)
AGTTTTGGGGTGAATTCAATTGAGGTTGCTACAGTTTAATCGGAGTCACCTAGTGCAG | 8760 fluorescence intensity (a.u.)
CATACGGCCCATATGCTGGCCTTGTTGACATATTGCGACTCGGAGTCACCTAGTGCAG | 11400 fluorescence intensity (a.u.)
CATTACGTCACACCTCATTCAGAAATTTCCATCTTCTTAACGGAGTCACCTAGTGCAG | 11900 fluorescence intensity (a.u.)
ATGCCGCTATCACCACTAGTATACACGTAAAATATCTGTCCGGAGTCACCTAGTGCAG | 10800 fluorescence intensity (a.u.)
TGCTATGCCAGCTATCCTAATGTCACTTATTCATGAAAACCGGAGTCACCTAGTGCAG | 8480 fluorescence intensity (a.u.)
ACCTTTTTCATCCAGTTCCATCATCGAGGACCGTCATTTGCGGAGTCACCTAGTGCAG | 8600 fluorescence intensity (a.u.)
TTCTATCCCGCGGGACAGGTATATTTTTGCAAAATTTTCCCGGAGTCACCTAGTGCAG | 9040 fluorescence intensity (a.u.)
TCCCCGCCTGTTGCCGGCCACCACCCGGTCCATTCTACGACGGAGTCACCTAGTGCAG | 9100 fluorescence intensity (a.u.)
GAAGCGGGGATCGGGGTCTAGGGAGAGAAAGAGAGACAGCCGGAGTCACCTAGTGCAG | 9730 fluorescence intensity (a.u.)
GAGTCGTTACACTTATCTATTTAGTTTTCTGTTTGCTACACGGAGTCACCTAGTGCAG | 12500 fluorescence intensity (a.u.)
TTTTCAGCGTGTGCATCACATGGTCCGTATCTTTAATACTCGGAGTCACCTAGTGCAG | 8520 fluorescence intensity (a.u.)
GCGCATCCGAGCACGCATACTTTCGATCGGCGACTACGTCCGGAGTCACCTAGTGCAG | 8810 fluorescence intensity (a.u.)
CATTTATTTTATTGTGACTTGATTCATCATCAAATGTTCTCGGAGTCACCTAGTGCAG | 8870 fluorescence intensity (a.u.)
GGCTACCTTGATATTGTTTCTTAGTTTTTCATACTGAATTCGGAGTCACCTAGTGCAG | 8330 fluorescence intensity (a.u.)
ATTAAAAACACCTTTGATTTTACACTTCATTTTTCTTTCCCGGAGTCACCTAGTGCAG | 8910 fluorescence intensity (a.u.)
TTATCACATTATTTTTCATTATATACTCCGTTTTTTTATTCGGAGTCACCTAGTGCAG | 9100 fluorescence intensity (a.u.)

Sequence | binding signal
TTGAGTGATTTTGTACATTAGATACCATGGTGCCCCATATCGGAGTCACCTAGTGCAG | 8220 fluorescence intensity (a.u.)
CAATGGCTTACGACGAGACGACTCACCTTTGAATTCCACGCGGAGTCACCTAGTGCAG | 9460 fluorescence intensity (a.u.)
CCATTCCTGTGATAGCCCTTAATGATCAGTTAGCATGCATCGGAGTCACCTAGTGCAG | 8920 fluorescence intensity (a.u.)
TTTAGTCCCAACACGCTCATAATTTCTTTTTTAAAAAATACGGAGTCACCTAGTGCAG | 8100 fluorescence intensity (a.u.)
GAAGCGCCGCCTCCTCTTAAGTCTTAACCCAACTGGTTTGCGGAGTCACCTAGTGCAG | 8380 fluorescence intensity (a.u.)
ATCGATCCATCTCTGCACAGCTGCACTTGCATTTCAGCCACGGAGTCACCTAGTGCAG | 9960 fluorescence intensity (a.u.)
TGATGTATCTGTTCTGTGGCTGCTTTACGCCCATCACCTTCGGAGTCACCTAGTGCAG | 10000 fluorescence intensity (a.u.)
AAAGCCGCACACGTGTTTCCCGCGACCGCGCCACGTCACCCGGAGTCACCTAGTGCAG | 8790 fluorescence intensity (a.u.)
TTCTAGTGGAGCTATTGCATTTTTTGCGTGCTCTTATCCTCGGAGTCACCTAGTGCAG | 8030 fluorescence intensity (a.u.)
CGCCTCGACGGGTTTGGATCTCGGGGTGGGATTAGAGGGGCGGAGTCACCTAGTGCAG | 12900 fluorescence intensity (a.u.)
CCTAACCTGGCCCTTATCATTGTGCGTTGGAGCACGTTTTCGGAGTCACCTAGTGCAG | 9680 fluorescence intensity (a.u.)
AGTTGTGATTATTGTTTAACCTATTTCCCTGAAGAAATTCCGGAGTCACCTAGTGCAG | 8090 fluorescence intensity (a.u.)
ATATACTCTCTCCGTTTCACAATGTAAGTCATTCTAGCGTCGGAGTCACCTAGTGCAG | 10700 fluorescence intensity (a.u.)
TTTGCACTGGTTTTGTAAGTTGGGGATGTATTGTATGAGGCGGAGTCACCTAGTGCAG | 9560 fluorescence intensity (a.u.)
AAATCAAGCACTAATCCACTCTGACACGTCATCATGTATCCGGAGTCACCTAGTGCAG | 8380 fluorescence intensity (a.u.)
AACTCCCAAAACCTCTTCTGCGGCGGCCGCTTTCGTTAGTCGGAGTCACCTAGTGCAG | 8520 fluorescence intensity (a.u.)
CAGCTCGTCTCCGCCGTCGACTTCTGCCACTCCCGCGGCGCGGAGTCACCTAGTGCAG | 8550 fluorescence intensity (a.u.)
TTGGTTTGGGATAGGTAGGTGTTATGTTAGGTCTGGTTTTCGGAGTCACCTAGTGCAG | 12000 fluorescence intensity (a.u.)
TGTGGATCTCTCGCTCGATCAGCGACGTCGGTCGTCATCTCGGAGTCACCTAGTGCAG | 9930 fluorescence intensity (a.u.)
ATCCGAGCATCTCGCCTCGCCCCGCCCCGCCCCGATCGATCGGAGTCACCTAGTGCAG | 9480 fluorescence intensity (a.u.)
CTGCCTACACCGCCCCACCGCCAACTTCCGACCCCGCGGTCGGAGTCACCTAGTGCAG | 9090 fluorescence intensity (a.u.)

A different layout for some results above:
Sequence	binding signal
CCCGGGTCGGGGTCGGGGTCCGGGGTCGGGGTCCCCAACTCGGAGTCACCTAGTGCAG	13000 fluorescence intensity (a.u.)
GTGCACACATATGCAAAAATGCCATCCATTCATCCCAGTGCGGAGTCACCTAGTGCAG	8870 fluorescence intensity (a.u.)
CCATTGTTTTCTTCTTGTCCTTTTAGAGATGTTGGGTACACGGAGTCACCTAGTGCAG	8240 fluorescence intensity (a.u.)
GAGACTACCTTGTGCACTGCATTTCGAGTTTTTACCTGACCGGAGTCACCTAGTGCAG	10500 fluorescence intensity (a.u.)
AATTTATCCATACCATTTTTCTTGTTTTAAAATTCGAATACGGAGTCACCTAGTGCAG	9750 fluorescence intensity (a.u.)
ACCACTGCACGGCCGCTCACCCACGTCAACGTTTAACCTGCGGAGTCACCTAGTGCAG	9460 fluorescence intensity (a.u.)
ATGCCGCTATCACCACTAGTATACACGTAAAATATCTGTCCGGAGTCACCTAGTGCAG	10800 fluorescence intensity (a.u.)
TTCTATCCCGCGGGACAGGTATATTTTTGCAAAATTTTCCCGGAGTCACCTAGTGCAG	9040 fluorescence intensity (a.u.)
GCGCATCCGAGCACGCATACTTTCGATCGGCGACTACGTCCGGAGTCACCTAGTGCAG	8810 fluorescence intensity (a.u.)
GGCTACCTTGATATTGTTTCTTAGTTTTTCATACTGAATTCGGAGTCACCTAGTGCAG	8330 fluorescence intensity (a.u.)
TTGAGTGATTTTGTACATTAGATACCATGGTGCCCCATATCGGAGTCACCTAGTGCAG	8220 fluorescence intensity (a.u.)
AGTTGTGATTATTGTTTAACCTATTTCCCTGAAGAAATTCCGGAGTCACCTAGTGCAG	8090 fluorescence intensity (a.u.)
ATATACTCTCTCCGTTTCACAATGTAAGTCATTCTAGCGTCGGAGTCACCTAGTGCAG	10700 fluorescence intensity (a.u.)
AAATCAAGCACTAATCCACTCTGACACGTCATCATGTATCCGGAGTCACCTAGTGCAG	8380 fluorescence intensity (a.u.)

Later entries.

Sequence | binding signal
ACCACCACCATTTGATCTGTTTCCTTCTCAGACACCAAAGCGGAGTCACCTAGTGCAG | 10100 fluorescence intensity (a.u.)
CCGAGCTGCCCCACGGCGCCGCCCTCCAAGCTGCACTCCGCGGAGTCACCTAGTGCAG | 8560 fluorescence intensity (a.u.)
CTGTGTGTGCAGTTCGATCGAGTATAATCCGCACTTTCTCCGGAGTCACCTAGTGCAG | 8230 fluorescence intensity (a.u.)
CTTTGAACCTAAAATTTTTTCACTGTTTTCGATCGGTTTTCGGAGTCACCTAGTGCAG | 8280 fluorescence intensity (a.u.)
GCCCGAACCTGTATACATCGCCCGTGTCTTGTGTGTTTCCCGGAGTCACCTAGTGCAG | 14700 fluorescence intensity (a.u.)
TTTGGTTGATGGCTATAAGTTGCCACACTTTGCCATACTTCGGAGTCACCTAGTGCAG | 8110 fluorescence intensity (a.u.)
ACTTACTCAGCCTTGTTTATACTACTTTCTCCGTTCCAAACGGAGTCACCTAGTGCAG | 12500 fluorescence intensity (a.u.)
GTAATGGCCGCAGTATCGTTTTTTCGCATCACTGTCCTCTCGGAGTCACCTAGTGCAG | 10400 fluorescence intensity (a.u.)
AGAATTTGCACTACTGTACACCGCTTATCTTATCCTTGTACGGAGTCACCTAGTGCAG | 9630 fluorescence intensity (a.u.)
CAGGCGGCGAGCCGGGATGGCGGTGGCGGGGCCATCTTCTCGGAGTCACCTAGTGCAG | 8860 fluorescence intensity (a.u.)
ATTCGTGCTCAGTTGTTTCTTTTCCAACTCCGGCGTCCTCCGGAGTCACCTAGTGCAG | 8150 fluorescence intensity (a.u.)
GATGGGATTATCATGTGTTCATTATCCAAAAATATTTGACCGGAGTCACCTAGTGCAG | 8310 fluorescence intensity (a.u.)
TGTTCTTGAGTTGCTTATATATGGCCTTCTAGCTCAGCTCCGGAGTCACCTAGTGCAG | 8540 fluorescence intensity (a.u.)
AGTTGAGCTGTCTGTGTTCATCAGCCCATCACTCTCTTCTCGGAGTCACCTAGTGCAG | 11000 fluorescence intensity (a.u.)
AACATGCATCATGTCCCTCATCCTGTTCGTTGACTTCAACCGGAGTCACCTAGTGCAG | 9740 fluorescence intensity (a.u.)
GGCGCTGGCAAGATGGAGGCGGAGGGTGGAGGGCGGAGGACGGAGTCACCTAGTGCAG | 13100 fluorescence intensity (a.u.)
ATTGTTTCCGCCTTCAGAACATTTCTCTGAACTCGTCCTCCGGAGTCACCTAGTGCAG | 9120 fluorescence intensity (a.u.)
TTTATACCTATTCTGTTATACGTTCTTGCTGTACATTTTTCGGAGTCACCTAGTGCAG | 9620 fluorescence intensity (a.u.)
AACGCATTCTCCAATTATATATATGCTCCTGGATTTTACACGGAGTCACCTAGTGCAG | 8890 fluorescence intensity (a.u.)
ACGCACAGACATGTTTTTTCCAGCATCCGTTTGGCTCGTTCGGAGTCACCTAGTGCAG | 11000 fluorescence intensity (a.u.)
GAGCTCACACCTCGATCCTCGTCCTCTTCTTCGATTCCTCCGGAGTCACCTAGTGCAG | 8340 fluorescence intensity (a.u.)
